We go through 1 molecule from article PMC5268445.

Chains of the proteins cited; added tags and fusions are not shown.
UniProt P37238: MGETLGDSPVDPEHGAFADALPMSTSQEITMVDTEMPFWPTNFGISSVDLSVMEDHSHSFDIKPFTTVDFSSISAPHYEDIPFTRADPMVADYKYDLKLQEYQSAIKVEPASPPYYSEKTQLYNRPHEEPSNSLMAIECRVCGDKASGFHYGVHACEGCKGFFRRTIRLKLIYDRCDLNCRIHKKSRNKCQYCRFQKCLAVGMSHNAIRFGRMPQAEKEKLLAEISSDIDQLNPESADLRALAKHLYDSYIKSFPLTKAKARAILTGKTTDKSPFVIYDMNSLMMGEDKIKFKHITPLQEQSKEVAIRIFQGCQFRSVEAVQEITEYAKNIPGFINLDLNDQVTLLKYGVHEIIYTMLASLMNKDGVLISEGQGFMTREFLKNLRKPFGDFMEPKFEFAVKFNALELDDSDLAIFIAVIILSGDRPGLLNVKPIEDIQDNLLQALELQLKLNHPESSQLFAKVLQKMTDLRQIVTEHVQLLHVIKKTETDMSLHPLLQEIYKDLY

These are yes or no findings as the source states them, for the method shown. Binding seen in cells or lysates may run through a third protein. Some results given as binding are weak or reduced against the parent protein; the word gives no strength.

In assay [1] the target is peroxisome proliferator-activated receptor γ (mouse (endogenous in immortalized brown adipocytes and 3T3-L1 adipocytes)) (UniProt P37238). As to the kind of experiment: co-IP; endogenous proteins, nuclear extracts of 3T3-L1 adipocytes on day 4 of differentiation; which protein was precipitated is not told.
The target is the same in assay [2]. As to the kind of experiment: co-IP; endogenous proteins, nuclear extracts of immortalized brown adipocytes on day 4 of differentiation; which protein was precipitated is not told.

B1: megakaryoblastic leukemia/myocardin-like 1 (protein, UniProt Q8K4J6 1-964)
chain: MTLLEPEMLMMAVQSVLQLKLQQRRTREELVSQGIMPPLKSPAAFHEQRRSLERARTEDYLKRKIRSRPERAELVRMHILEETSAEPSLQAKQLKLKRARLADDLNEKIAQRPGPMELVEKNILPVESSLKEAIIVGQVNYPKVADSSSFDEDSSDALSPEQPASHESQGSVPSPLESRVSDPLPSATSISPTQVLSQLPMAPDPGETLFLAEQPPLPPAPLLPPSLANGSIVPTAKPAPTLIKQSQPKSASEKSQRSKKAKELKPKVKKLKYHQYIPPDQKQDKGAPAMDSSYAKILQQQQLFLQLQILNQQQQQQQQQHYNYQAILPAPPKPSAETPGSSAPTPSRSLSTSSSPSSGTPGPSGLARQSSTALAAKPGALPANLDDMKVAELKQELKLRSLPVSGTKTELIERLRAYQDQVSPAPGAPKAPATTSVLSKAGEVVVAFPAALLSTGSALVTAGLAPAEMVVATVTSNGMVKFGSTGSTPPVSPTPSERSLLSTGDENSTPGDAFGEMVTSPLTQLTLQASPLQIVKEEGARAASCCLSPGARAELEGLDKDQMLQEKDKQIEELTRMLQQKQQLVELLRLQLEQQKRAQQPAPASSPVKRESGFSSCQLSCQPQGSAHAFGSGLVVPTTNHGDTQAPAPESPPVVVKQEAGPPEPDLAPSSQLLLGSQGTSFLKRVSPPTLVTDSTGTHLILTVTNKSADGPGLPAGSPQQPLSQPGSPAPGPPAQMDLEHPPQPPFATPTSLLKKEPPGYEETVTQQPKQQENGSSSQHMDDLFDILIQSGEISADFKEPPSLPGKEKSPPAAAAYGPPLTPQPSPLSELPQAAPPPGSPTLPGRLEDFLESSTGLPLLTSGHEGPEPLSLIDDLHSQMLSSSAILDHPPSPMDTSELHFAPEPSSGMGLDLAVGHLDSMDWLELSSGGPVLSLAPLSTAAPSLFSMDFLDGHDLQLHWDSCL
As to B1, the binding result in assay [1] and in assay [2] was “binds” throughout.
